According to PubChem BioAssay AID1347423 (Functional Genomics Laboratory (NCATS/FGL), 2020):
Out of some 52,000 sequences screened, about 210 (0.4%) were called active.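 How the source made its calls: active means gene whose silencing raises cell survival under the drug, median off-target-corrected z-score across its silencing RNAs 2 or more; inactive means the rest.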 The list shows a part of the results.

Assay: Resistance to Poly (ADP-Ribose) Polymerase inhibitor: Gene Identification via Genome-wide siRNA Screen
Details: mouse BRCA2 R2336H ES cells, olaparib, CellTiter-Glo viability; hits give high values
In short: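 Genome-wide siRNA screen (3 siRNAs/gene, 20 nM) in mouse ES cells carrying hypomorphic BRCA2 R2336H; olaparib 500 nM added 48 h post-transfection, CellTiter-Glo viability 72 h later. Normalized to plate-median negative control; MAD z-scores, gene median, seed-adjusted.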

| Sequence | z-score |
| --- | --- |
| CGACCUUCAAGGCAAUAUUTT against Anapc2 | inactive: -2.06 |
| GGUGAUGGCUGUUCCUUUCTT against Zdhhc2 | inactive: -0.551 |
| GGUUCUGAUAUACGUGUUUTT against Rraga | inactive: 0.309 |
| GCUAUUCUGUCUACGUGUATT against Hist2h2bb | inactive: 0.841 |
| GCCUCAUUAUGAGUUGGCATT against Olfr1419 | inactive: -0.0432 |
| CCGCUUGAAUCUUAGUGAUTT against Hoxc12 | inactive: -0.269 |
| GGCCUUCAUCUUCAAGUACTT against Cmkor1 | inactive: -0.0264 |
| GGUUGCUAGAAAAAUGAAGTT against 4933421G18Rik | inactive: 0.866 |
| GGAACCCAUCAGCUACAUGTT against 1700008E09Rik | inactive: -0.285 |
| GCACUACCGCAUCAUGUAUTT against Csk | inactive: 1.09 |
| CGUGCUAAACAUUGACACCTT against Stx1b1 | inactive: -0.664 |
| CCACCUGAAUCAUUACUCATT against Rdhs | inactive: -0.857 |
| GGAGAAGACCAUAAAGAAGTT against E030034P13Rik | inactive: 0.36 |
| GGCCAGUCAAUUCUUGCUUTT against E030018N11Rik | inactive: 0.43 |
| GGGAUCAAAGAUCAGUUAATT against 2700059L22Rik | inactive: 0.231 |
| GCAGUUUGCACGAGAUCGATT against Myd116 | inactive: 0.38 |
| GGUCACAAAGAAGAAUCACTT against 4632417D23 | inactive: 0.717 |
| GGAAACGUGGAACAUAAGATT against Gapds | inactive: -0.726 |
| CCAAGUGACUUUAAGGAUGTT against Pcolce | inactive: 0.886 |
| GCCAGAGACCCAAAUCAGATT against B630019A10Rik | inactive: 0.814 |
| CCAUAAGAGGCUUACCAAATT against Ndrg3 | inactive: -0.191 |
| GCACUCAUUUUUGCCCUGGTT against Gpr103 | inactive: -0.541 |
| AUCCAUUUUGUGCUAGGCATT against 5930434B04Rik | inactive: 0.91 |
| GGAAUAUCGGACUUUUUCATT against C79407 | inactive: -0.0191 |
| GGCAAAUCAAGAGUAUUUUTT against C87436 | inactive: 0.574 |
| GCCUAAUCCCUUAAUCUACTT against Oas1g | inactive: -0.635 |

| Sequence | z-score |
| --- | --- |
| GGCAUCUUUCAGUUUAUAUTT against Spic | inactive: 0.57 |
| GGAAUCUUUUAUAAACACCTT against Abcc12 | inactive: 0.802 |
| GCCCAUUUUUUUAGAUAUCTT against Rbl1 | inactive: 1.14 |
| GGUGAACCUGGAAGAACUATT against Manea | inactive: -0.0653 |
| CCUCUGUGACCUUUCAUGATT against Dhrsx | inactive: 0.255 |
| GGGUCAUGUCUGAAUUAAATT against 3110001K24Rik | inactive: -0.2 |
| CCCACAACUGCAAAUUGUGTT against Olfr782 | inactive: 0.0524 |
| GGCUCCUGAUUGAACAAAATT against Plod1 | inactive: 0.091 |
| GGUAUCUCAGUCACGAAGATT against Rora | inactive: 1.15 |
| CGUGUAUUUUACAAAGAGUTT against LOC432589 | inactive: 0.195 |
| GGGAUGAACGAAAUCAGUCTT against Myo5a | inactive: -1.26 |
| GGUAUCAAGGUGAAGUUGATT against 1-Sep | inactive: -0.0308 |
| GGCACAGAAAAAGAAAAUUTT against Usp3 | inactive: -1.85 |
| GGACCAAGGAUCUUGACCUTT against Rax | inactive: 1.35 |
| GCAUUCAAUCUGCAGAGGGTT against Olfr888 | inactive: 0.325 |
| CCACUUUUUUAGAUCCCUGTT against AA960436 | inactive: -0.149 |
| GGUUCUGAGUAUUUAAAGCTT against C630002B14Rik | inactive: 0.728 |
| GGAUACGAAAACGACUGCATT against 4930402E16Rik | inactive: 1.31 |
| GGGAAUCCUAGACAUGCUGTT against Nphp4 | inactive: -0.682 |
| UGCAAAAAACGGAACAAUCTT against Gzmd | inactive: -0.434 |
| GCGAGAACAGCAAUAGUUCTT against Spag4 | inactive: 1.22 |
| CCCAUCAAAAGAAUCCACATT against Snrp70 | inactive: -1.66 |
| GGCCAACACCUUUGAUGGATT against Abtb1 | inactive: 1.01 |
| GGAGUUUGUAAGGUCAUGUTT against Galt | inactive: 0.0602 |
| GGGACACAUGGAGAUACUGTT against Ankrd2 | inactive: -1.28 |
| CCUGGAGAUUAGCUACGCCTT against LOC329416 | inactive: -0.649 |

| Sequence | z-score |
| --- | --- |
| CCCUAUGAGCAAAUCACAUTT against Ppp3cc | inactive: -0.197 |
| CCACUUUAAAGGCUCUUCUTT against Hist1h3g | inactive: 0.623 |
| CCAUCAAUGUGCAGAAAUCTT against 9030612M13Rik | inactive: 1.49 |
| GCGACAACUGUGAUAUACCTT against Liph | inactive: -0.143 |
| GGACAUGGAACUGGAUGAATT against C2ta | inactive: -0.943 |
| GGCACCAGGUAAAGCAGUATT against Mitf | inactive: 2.72 |
| GGAAAGAUGAGGAAUGUUCTT against Tbx5 | inactive: 0.076 |
| GGUCCUAACAUCCAGAGUGTT against B830013J05Rik | inactive: -1.51 |
| GGCAACACUGUUUUAACCGTT against D430020F16 | inactive: -0.974 |
| CCAGAACCGUUUGAGGAGATT against Mrpl2 | inactive: -0.416 |
| GCUCUUGCUACUUUUUUCUTT against Olfr823 | inactive: 0.431 |
| GCCAGGAUUGGAUGAAAUATT against Ace2 | inactive: 0.198 |
| GGUUCUCUACAAAGUAAGUTT against 6030458H05 | inactive: -0.272 |
| CCUCUACUCAAAUUCUUGUTT against Ugt1a2 | inactive: -0.142 |
| GGUACUUUGGAGAUUGUAATT against Rdh14 | inactive: -0.931 |
| GGGACACUUUCACUUGUUCTT against 1110007A06Rik | inactive: -0.543 |
| GGUCAGAAAUUCUAAGUUGTT against Gpatc2 | inactive: 0.495 |
| CCAAGAGCCUCUUAAUUACTT against Syt9 | inactive: -0.71 |
| GCUAGAGGCUCAAAUACAGTT against BC018222 | inactive: -1.19 |
| GGACUUCAGUAUCAAUUGATT against Serpinb7 | inactive: 0.355 |
| GGUUUGGUUGAAAUUGAACTT against Smc5l1 | inactive: -0.0777 |
| GGUGGUGUUUGUCAGCAAATT against Khk | inactive: -0.404 |
| GUUACCUCGUGGAAAGCAUTT against V1ra5 | inactive: -0.567 |
| GGUAGUCAAGUCGAAAGUATT against 4932411G06Rik | inactive: -0.38 |
| GGUGGAAGCACUCAAUAAGTT against Pik3cb | inactive: 0.269 |
| UAUUCUAUCCGAACACCUUTT against 4930549O06 | inactive: 1.45 |

| Sequence | z-score |
| --- | --- |
| GGAGGAUGCCAAAGAGAACTT against A030007D23Rik | inactive: -0.21 |
| GGAACGAUGGAAAUUGUAUTT against Rap1gds1 | inactive: -0.352 |
| GGUGUUGAAAUAAUUUCUCTT against 1700048E23Rik | inactive: -0.524 |
| CGGUCUGAUUAAACAAAUUTT against Dpysl4 | inactive: -0.29 |
| GGAACUGCUGUGCAGUUUUTT against 1810059G22Rik | inactive: 0.909 |
| GUCAUGAGAUUGAAUACAATT against Olfr569 | inactive: -0.572 |
| GCAGUUAUGUUAUAGCUGCTT against 2310061F22Rik | inactive: 0.874 |
| CGAAUACUUUGGAAAAUUCTT against Tfb2m | inactive: 0.094 |
| GGAAACACCUUCUUCAGCATT against C130060K24Rik | inactive: -1.54 |
| GCAAUGCAAAAGAUGCCCUTT against Chchd7 | inactive: -0.644 |
| CCCAACUCAAGCCUCGAAATT against Scpep1 | inactive: 0.571 |
| CCUCUCCCUACUGUGAAAUTT against Poldip2 | inactive: 0.0975 |
| GGAAAAAUGGGAGUUUGAATT against 4932423M01Rik | inactive: -0.322 |
| GGUUCAAUUCACAGAGCGCTT against BC028768 | inactive: -0.373 |
| GGUUGUGAGUCAGUCUAGUTT against Tia1 | inactive: -0.904 |
| GGAGUCUUCUGGAUAAACATT against 1110028E10Rik | inactive: -1.06 |
| GGCCAAGAGUAAACAGAAATT against Traip | inactive: -0.521 |
| GGGCUGGUCAUUUACUAAGTT against Cdh22 | inactive: 0.524 |
| GCUCAAGUGCGAUUGUAAGTT against 2810441C07Rik | inactive: -0.0952 |
| GCCAGACCAAACCCGAAUUTT against Fbl | inactive: -2.12 |
| CCAGGUUUUUUAACAGAGATT against Hipk1 | inactive: -0.304 |
| CGUGUGGACUUGACAAGAUTT against Cklf | inactive: -1.3 |
| GGAAUUCUGGGAACAAAAGTT against Mina | inactive: -0.546 |
| GCUCUCACCCAUGUGACGATT against A930021H16Rik | inactive: 0.907 |
| CCACUUCUACCAUCAUUGATT against AU040320 | inactive: 0.417 |

Taken from above.
In z-score, GGAAACACCUUCUUCAGCATT against C130060K24Rik reads inactive: -1.54
In z-score, GCAGUUAUGUUAUAGCUGCTT against 2310061F22Rik reads inactive: 0.874
In z-score, GGUUGUGAGUCAGUCUAGUTT against Tia1 reads inactive: -0.904
In z-score, GGAAUUCUGGGAACAAAAGTT against Mina reads inactive: -0.546
